{"source": "PubChem BioAssay AID1159584 (Peter MacCallum Cancer Centre, 2016)", "aim": "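Genes whose loss is lethal only together with E-cadherin loss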 (primary screen)", "cells": "human MCF10A breast epithelial cells, parental and CDH1-null", "knock-down reagent": "siRNA against human genes", "detection": "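Cell viability by CellTiter-Glo ATP luminescence, each line scaled to the mean of mock wells across plates, then CDH1-null over parental ratio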", "reading the numbers": "CDH1-null / parental viability ratio: higher = CDH1-null cells survive relatively better than parental", "note": "The deposit covers about 18,000 reagents; below is a part drawn at random. Not all columns of the deposit are shown. Not stated in the record: the amount of reagent, the time to read-out."}
{"target": "UBE2I", "PubChem SID": "SID134310672", "CDH1-null / parental viability ratio": 1.22}
{"target": "SCN3A", "PubChem SID": "SID135621177", "CDH1-null / parental viability ratio": 1.17}
{"target": "CCNB3", "PubChem SID": "SID152149423", "CDH1-null / parental viability ratio": 1.06}
{"target": "FAM86C1P", "PubChem SID": "SID135623048", "CDH1-null / parental viability ratio": 1.22}
{"target": "DCX", "PubChem SID": "SID134315472", "CDH1-null / parental viability ratio": 1.03}
{"target": "TECR", "PubChem SID": "SID152150354", "CDH1-null / parental viability ratio": 1.1}
{"target": "TNS2", "PubChem SID": "SID134314651", "CDH1-null / parental viability ratio": 0.75}
{"target": "POLR3GL", "PubChem SID": "SID135622824", "CDH1-null / parental viability ratio": 0.99}
{"target": "IDI1", "PubChem SID": "SID134314112", "CDH1-null / parental viability ratio": 1.11}
{"target": "ELAC1", "PubChem SID": "SID152156289", "CDH1-null / parental viability ratio": 0.88}
{"target": "ZNF85", "PubChem SID": "SID135623771", "CDH1-null / parental viability ratio": 0.96}
{"target": "KATNAL2", "PubChem SID": "SID134329981", "CDH1-null / parental viability ratio": 1.17}
{"target": "LANCL3", "PubChem SID": "SID134326841", "CDH1-null / parental viability ratio": 1.11}
{"target": "EIF1AY", "PubChem SID": "SID134316221", "CDH1-null / parental viability ratio": 1.04}
{"target": "SUV39H2", "PubChem SID": "SID134313380", "CDH1-null / parental viability ratio": 0.82}
{"target": "COL6A1", "PubChem SID": "SID152154165", "CDH1-null / parental viability ratio": 0.94}
{"target": "CLEC3A", "PubChem SID": "SID152148636", "CDH1-null / parental viability ratio": 1.04}
{"target": "ZNF24", "PubChem SID": "SID134323473", "CDH1-null / parental viability ratio": 1.22}
{"target": "RUVBL2", "PubChem SID": "SID134316580", "CDH1-null / parental viability ratio": 1.42}
{"target": "EXOC8", "PubChem SID": "SID135623438", "CDH1-null / parental viability ratio": 0.82}
{"target": "TP53I3", "PubChem SID": "SID134314544", "CDH1-null / parental viability ratio": 1.36}
{"target": "PHOSPHO1", "PubChem SID": "SID134322280", "CDH1-null / parental viability ratio": 0.79}
{"target": "PDZD9", "PubChem SID": "SID134322217", "CDH1-null / parental viability ratio": 0.96}
{"target": "CA6", "PubChem SID": "SID135621896", "CDH1-null / parental viability ratio": 1.01}

In a second layout: 3 of the entries above
DCX [SID134315472]: CDH1-null / parental viability ratio = 1.03
TECR [SID152150354]: CDH1-null / parental viability ratio = 1.1
TNS2 [SID134314651]: CDH1-null / parental viability ratio = 0.75
